Measurements: patent EP1310247A1 (priority 1997, dated 1999)

Chains of the proteins cited; added tags and fusions are not shown.
UniProt P54833, whole entry: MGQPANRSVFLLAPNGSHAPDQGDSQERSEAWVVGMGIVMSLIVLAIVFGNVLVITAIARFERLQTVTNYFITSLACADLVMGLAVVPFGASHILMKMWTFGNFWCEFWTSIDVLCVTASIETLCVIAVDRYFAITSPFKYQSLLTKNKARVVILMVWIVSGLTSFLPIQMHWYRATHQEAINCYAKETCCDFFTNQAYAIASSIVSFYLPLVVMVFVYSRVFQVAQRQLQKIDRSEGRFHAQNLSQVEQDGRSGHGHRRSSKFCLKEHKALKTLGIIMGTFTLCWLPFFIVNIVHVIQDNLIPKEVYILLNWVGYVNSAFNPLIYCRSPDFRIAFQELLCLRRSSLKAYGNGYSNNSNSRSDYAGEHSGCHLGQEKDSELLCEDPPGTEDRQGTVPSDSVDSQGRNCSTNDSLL

Biological target: T1, β2-Receptor (Canis lupus familiaris, UniProt P54833)
T1 construct: Canine lung membranes (10 µg protein/100 µl) were incubated with ^125ICYP; from tissue; host or cells: dog lung membranes
Assay: Beta-2 binding, 125iodocyanopindolol (ICYP), canine lung membranes
Parameters: species or system mongrel dogs
Details: check for β1 binding with β1-selective antagonist

CC(C)NCC(O)COc1ccc(CC(N)=O)cc1 (stereo not shown) [Atenolol, atenolol]
displacement of ICYP from pulmonary membranes: largely ineffective in displacing ICYP
